These are yes or no findings as the source states them, for the method shown. Binding seen in cells or lysates may run through a third protein. Here binding means that the protein was enriched with, or labelled near, the bait; the list need not be complete.
Key:
[1] = molecular target: 2-Oxoisovalerate-ferredoxin oxidoreductase, α subunit (Thermococcus kodakarensis) (UniProt Q5JIK0); assay: affinity purification with mass spectrometry; HA- and His6-tagged bait made from its native locus, captured from clarified T. kodakarensis lysate on a Ni2+-charged chelating column (buffer A: 10 mM Tris HCl pH 8.0, 500 mM NaCl, 10% glycerol), eluted with an imidazole gradient; pooled fractions identified by MuDPIT LC-MS/MS and compared with the parental strain TS559 (P < 0.05, log2 fold change ≥ 2); cells grown at 85°C with (+S˚) or without (–S˚) elemental sulfur
[2] = molecular target: T1, 2-Oxoisovalerate-ferredoxin oxidoreductase, β subunit (Thermococcus kodakarensis) (UniProt Q5JIJ9); assay: as above
T1 sequence: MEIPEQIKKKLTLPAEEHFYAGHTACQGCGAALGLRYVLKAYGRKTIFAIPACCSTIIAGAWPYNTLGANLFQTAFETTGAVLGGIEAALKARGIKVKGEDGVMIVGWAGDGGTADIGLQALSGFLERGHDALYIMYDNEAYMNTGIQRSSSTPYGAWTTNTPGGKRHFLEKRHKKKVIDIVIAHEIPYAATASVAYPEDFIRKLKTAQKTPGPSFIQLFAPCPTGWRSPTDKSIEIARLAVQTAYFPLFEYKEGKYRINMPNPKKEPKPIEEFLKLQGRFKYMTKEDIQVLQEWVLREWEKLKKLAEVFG

The chains behind the UniProt entries cited, without tags or fusion partners. Where a name states a change or a piece, a line headed by the entry shows the natural chain unless it says otherwise.
UniProt Q5JIK0: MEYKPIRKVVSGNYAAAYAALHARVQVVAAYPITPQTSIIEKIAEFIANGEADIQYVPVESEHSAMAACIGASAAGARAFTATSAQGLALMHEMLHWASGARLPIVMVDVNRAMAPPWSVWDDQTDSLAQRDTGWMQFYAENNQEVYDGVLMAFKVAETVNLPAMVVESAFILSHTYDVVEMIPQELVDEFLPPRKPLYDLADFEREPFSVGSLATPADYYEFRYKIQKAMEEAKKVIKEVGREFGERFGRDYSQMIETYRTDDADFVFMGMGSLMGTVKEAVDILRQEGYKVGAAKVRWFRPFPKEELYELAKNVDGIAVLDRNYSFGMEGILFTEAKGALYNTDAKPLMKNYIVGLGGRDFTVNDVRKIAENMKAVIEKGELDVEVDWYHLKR

[3] = molecular target: T2, 2-Oxoisovalerate-ferredoxin oxidoreductase, δ subunit (Thermococcus kodakarensis) (UniProt Q5JIK1); assay: as above
T2 sequence: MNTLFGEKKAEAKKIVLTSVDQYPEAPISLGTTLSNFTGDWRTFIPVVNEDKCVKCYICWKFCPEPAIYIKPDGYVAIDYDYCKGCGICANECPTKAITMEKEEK

[4] = molecular target: T3, 2-Oxoisovalerate-ferredoxin oxidoreductase, γ subunit (Thermococcus kodakarensis) (UniProt Q5JIK2); assay: as above
T3 sequence: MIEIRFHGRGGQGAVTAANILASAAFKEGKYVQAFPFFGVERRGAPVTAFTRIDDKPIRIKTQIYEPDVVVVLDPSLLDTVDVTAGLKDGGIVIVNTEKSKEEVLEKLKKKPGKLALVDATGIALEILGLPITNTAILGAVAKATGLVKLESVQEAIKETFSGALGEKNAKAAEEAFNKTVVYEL

[5] = molecular target: T4, Membrane-bound sulfane reductase, NiFe-hydrogenase large subunit 2, MBS-L (Thermococcus kodakarensis) (UniProt Q5JGG2); assay: as above
T4 sequence: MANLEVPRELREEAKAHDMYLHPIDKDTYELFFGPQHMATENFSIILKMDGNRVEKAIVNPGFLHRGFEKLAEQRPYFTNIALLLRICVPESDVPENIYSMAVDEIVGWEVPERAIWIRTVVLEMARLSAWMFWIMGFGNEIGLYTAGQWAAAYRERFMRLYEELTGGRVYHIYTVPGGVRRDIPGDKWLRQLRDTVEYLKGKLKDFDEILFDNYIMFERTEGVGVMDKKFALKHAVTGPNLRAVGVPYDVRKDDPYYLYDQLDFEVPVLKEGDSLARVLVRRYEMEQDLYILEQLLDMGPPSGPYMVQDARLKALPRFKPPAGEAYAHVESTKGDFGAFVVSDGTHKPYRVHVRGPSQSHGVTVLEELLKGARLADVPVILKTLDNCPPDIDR

[6] = molecular target: T5, Ferredoxin:NADP oxidoreductase, β subunit (FNOR2) (Thermococcus kodakarensis) (UniProt Q5JIY6); assay: as above
T5 sequence: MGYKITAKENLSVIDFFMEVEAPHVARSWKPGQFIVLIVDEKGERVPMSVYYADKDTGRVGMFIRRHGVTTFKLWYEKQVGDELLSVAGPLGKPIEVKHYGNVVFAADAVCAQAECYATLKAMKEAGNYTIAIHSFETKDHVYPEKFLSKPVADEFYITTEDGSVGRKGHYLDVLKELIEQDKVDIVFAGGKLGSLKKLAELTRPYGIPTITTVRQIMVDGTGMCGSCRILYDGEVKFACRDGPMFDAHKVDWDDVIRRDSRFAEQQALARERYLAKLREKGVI

[7] = molecular target: T6, Formate dehydrogenase, [4Fe-4S] cluster-binding protein, FDHγ3 (Thermococcus kodakarensis) (UniProt Q5JHV9); assay: as above
T6 sequence: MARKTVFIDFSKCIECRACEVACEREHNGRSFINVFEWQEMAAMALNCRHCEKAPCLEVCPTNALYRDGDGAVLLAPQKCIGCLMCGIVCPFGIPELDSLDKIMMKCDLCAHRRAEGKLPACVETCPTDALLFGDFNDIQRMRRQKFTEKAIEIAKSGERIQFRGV

[8] = molecular target: T7, Rubrerythrin Mn-catalase (Thermococcus kodakarensis) (UniProt Q5JHY4); assay: as above
T7 sequence: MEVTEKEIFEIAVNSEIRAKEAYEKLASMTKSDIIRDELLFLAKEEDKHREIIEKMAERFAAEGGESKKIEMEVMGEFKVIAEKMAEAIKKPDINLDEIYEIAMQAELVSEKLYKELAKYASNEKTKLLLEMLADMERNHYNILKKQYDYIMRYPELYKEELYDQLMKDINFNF

[9] = molecular target: T8, Rubrerythrin-related protein (Thermococcus kodakarensis) (UniProt Q5JF77); assay: as above
T8 sequence: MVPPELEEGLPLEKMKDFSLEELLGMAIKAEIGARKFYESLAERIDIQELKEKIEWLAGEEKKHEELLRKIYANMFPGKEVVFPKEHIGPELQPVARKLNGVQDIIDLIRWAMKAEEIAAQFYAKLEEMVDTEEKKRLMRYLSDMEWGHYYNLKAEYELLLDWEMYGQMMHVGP

[10] = molecular target: T9, 2-Oxoacid:ferredoxin oxidoreductases, β2 subunit (Thermococcus kodakarensis), Q5JE71; assay: affinity purification with mass spectrometry; HA- and His6-tagged bait made from its native locus, captured from clarified T. kodakarensis lysate on a Ni2+-charged chelating column (buffer A: 10 mM Tris HCl pH 8.0, 500 mM NaCl, 10% glycerol), eluted with an imidazole gradient; pooled fractions identified by MuDPIT LC-MS/MS and compared with the parental strain TS559 (P < 0.05, log2 fold change ≥ 2); cells grown at …; settings: remark: other sources report otherwise
T9 chain: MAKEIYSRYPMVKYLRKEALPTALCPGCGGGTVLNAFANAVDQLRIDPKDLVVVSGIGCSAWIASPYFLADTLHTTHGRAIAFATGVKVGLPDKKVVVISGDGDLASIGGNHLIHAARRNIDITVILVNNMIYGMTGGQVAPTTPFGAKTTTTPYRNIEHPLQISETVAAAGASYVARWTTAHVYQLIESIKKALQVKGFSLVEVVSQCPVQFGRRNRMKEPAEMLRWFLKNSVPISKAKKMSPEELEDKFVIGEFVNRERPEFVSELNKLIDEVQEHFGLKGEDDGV

[11] = molecular target: T10, Geranylgeranyl reductase (Thermococcus kodakarensis), Q5JE27; assay: as above; settings: remark: other sources report otherwise
T10 chain: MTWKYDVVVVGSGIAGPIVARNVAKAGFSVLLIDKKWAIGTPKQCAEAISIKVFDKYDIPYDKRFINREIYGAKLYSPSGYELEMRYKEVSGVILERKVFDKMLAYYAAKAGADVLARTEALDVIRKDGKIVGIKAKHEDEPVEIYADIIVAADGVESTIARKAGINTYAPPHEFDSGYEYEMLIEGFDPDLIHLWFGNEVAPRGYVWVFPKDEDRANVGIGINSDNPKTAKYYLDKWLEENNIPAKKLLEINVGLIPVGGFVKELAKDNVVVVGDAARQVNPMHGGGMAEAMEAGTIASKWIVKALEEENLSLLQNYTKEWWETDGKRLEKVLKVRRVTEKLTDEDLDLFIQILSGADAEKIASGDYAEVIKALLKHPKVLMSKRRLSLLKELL

Measured: binding

B1: 2-Oxoisovalerate-ferredoxin oxidoreductase, γ subunit (protein, UniProt Q5JIK2 1-185)
chain: MIEIRFHGRGGQGAVTAANILASAAFKEGKYVQAFPFFGVERRGAPVTAFTRIDDKPIRIKTQIYEPDVVVVLDPSLLDTVDVTAGLKDGGIVIVNTEKSKEEVLEKLKKKPGKLALVDATGIALEILGLPITNTAILGAVAKATGLVKLESVQEAIKETFSGALGEKNAKAAEEAFNKTVVYEL
binds: [1] | [2] | [3]

B2: 2-Oxoisovalerate-ferredoxin oxidoreductase, β subunit (protein, UniProt Q5JIJ9 1-311)
chain: MEIPEQIKKKLTLPAEEHFYAGHTACQGCGAALGLRYVLKAYGRKTIFAIPACCSTIIAGAWPYNTLGANLFQTAFETTGAVLGGIEAALKARGIKVKGEDGVMIVGWAGDGGTADIGLQALSGFLERGHDALYIMYDNEAYMNTGIQRSSSTPYGAWTTNTPGGKRHFLEKRHKKKVIDIVIAHEIPYAATASVAYPEDFIRKLKTAQKTPGPSFIQLFAPCPTGWRSPTDKSIEIARLAVQTAYFPLFEYKEGKYRINMPNPKKEPKPIEEFLKLQGRFKYMTKEDIQVLQEWVLREWEKLKKLAEVFG
binds: [1] | [4] | [3]

B3: ferredoxin 3 (protein, UniProt Q5JDE8 1-138)
chain: MADVKAPVIGRDALGREVKDLSVIPWWGVDRKEIEWYPKINYSVCARCGLCFITCGRRVFDWDTEEGKPVVARPYNCMVGCNTCAILCPCNAIEFPPKEYVKKLVIEHGIIRKAFEITKPLTKKKEESTNGAESVFNP
binds: [5] | [6] | [7] | [8] | [9]

B4: ferredoxin 3, Q5JDE8 1-138 (protein)
chain: MADVKAPVIGRDALGREVKDLSVIPWWGVDRKEIEWYPKINYSVCARCGLCFITCGRRVFDWDTEEGKPVVARPYNCMVGCNTCAILCPCNAIEFPPKEYVKKLVIEHGIIRKAFEITKPLTKKKEESTNGAESVFNP
binds: [10] | [11]

Source: article PMC12016516
